Data source: PubChem BioAssay AID686943 (Drosophila RNAi Screening Center, 2013)
In all, the deposit lists about 23,000 reagents; this is a random part of those with a known target gene and a result. 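Extra replicates exist only for a retested subset of genes; insulin dose and duration not given; both raised and lowered dpERK matter.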 Reagents against one gene are numbered here. A plus sign joins genes that one reagent is predicted to hit. Not stated in the record: the amount of reagent, the time to read-out.

- Aim: 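Knockdowns that increase or decrease active ERK after insulin receptor stimulation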 (primary screen)
- Cells: Drosophila S2R+ haemocyte-like cells expressing YFP-tagged ERK (Rolled)
- Reagents: long dsRNA against Drosophila genes
- Conditions: insulin stimulation versus unstimulated cells; dose and duration not given
- Read-out: 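Per-plate z-scores of phospho-ERK immunostaining normalised to YFP-tagged ERK, measured with and without insulin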
- Scale: replicate 1, z-score of dpERK with insulin and replicate 2, z-score of dpERK with insulin: higher = more active ERK per ERK-YFP after insulin; replicate 1, z-score of dpERK under basal conditions: higher = more basal active ERK per ERK-YFP; replicate 1, z-score of ERK-YFP with insulin: higher = more YFP-tagged ERK signal

| target | reagent no. | replicate 1, z-score of dpERK with insulin | replicate 2, z-score of dpERK with insulin | replicate 1, z-score of dpERK under basal conditions | replicate 1, z-score of ERK-YFP with insulin |
| --- | --- | --- | --- | --- | --- |
| COX7AL2 | 1 | 1.81 | 0.35 | -0.24 | -0.81 |
| DIP2 | 1 | 0.4 | 0.86 | 0.84 | 0.53 |
| CG3199 | 1 | -0.01 | -1.5 | -0.08 | 0.03 |
| CG31064 | 1 | -0.94 | -0.03 | -0.29 | 0.61 |
| CG31064 | 2 | -0.47 | 0.05 | -0.5 | 1.18 |
| CG31064 | 3 | 0.81 | -0.16 | -0.62 | 0.2 |
| CG31064 | 4 | -1.2 | 0.1 | -0.04 | -0.99 |
| CG13458 | 1 | 0.16 | -0.12 | 0.36 | 0.53 |
| CG1421 | 1 | 0.78 | 0.28 | 1.29 | -0.48 |
| CG15599 | 1 | -0.64 | -0.51 | 0.11 | 0.02 |
| Ras64B | 1 | -2.42 | -1.91 | -0.42 | -0.11 |
| CG5973 | 1 | -1.31 | -0.37 | -0.14 | 1.63 |
| Fas3 | 1 | -0.92 | -0.04 | -0.19 | 1.28 |
| Fas3 | 2 | -0.19 | -1.48 | -0.19 | -1.04 |
| Fas3 | 3 | 1.81 | -2.07 | -0.47 | -1.84 |
| CG7054 | 1 | -0.15 | 0.5 | 0.24 | 0.05 |
| cni | 1 | -0.47 | 0.31 | -0.95 | 1.32 |
| CG7191 | 1 | 0.5 | 0.32 | -0.36 | 0.8 |
| sun | 1 | -0.46 | -0.21 | -2.13 | -0.35 |
| CG13711 | 1 | -0.49 | 0 | -1.05 | 0.45 |
| ng3 | 1 | 0.44 | 0.64 | -0.7 | 0.55 |
| galectin | 1 | 0 | -0.04 | 0.69 | 0.02 |
| sordd2 + sordd1 | 1 | 0.33 | 0.23 | 0.83 | -0.58 |
